{"source": "paper PMC8632694", "about": "(Frontiers in Pharmacology, 2021)", "key": {"[1]": {"conditions": "after loss in the gut; ref Lennernäs, 2003; cited from earlier work"}, "[2]": {"test": "Steady-state plasma pharmacokinetics of atorvastatin, 2-hydroxyatorvastatin and atorvastatin lactone after atorvastatin 40 mg once daily for 7 days, alone or co-administered with tegoprazan 50 mg or vonoprazan 20 mg"}}}
{"molecule": "CC(C)c1c(C(=O)Nc2ccccc2)c(-c2ccccc2)c(-c2ccc(F)cc2)n1CC[C@@H](O)C[C@@H](O)CC(=O)O", "note": "[Atorvastatin, atorvastatin]", "values": [{"measurement": "fraction of the remaining amount lost in the liver", "setting": "[1]", "value": 42, "unit": "%"}, {"measurement": "Increase of AUCτ", "setting": "[2]; atorvastatin co-administered with tegoprazan, not statistically significant", "value": 3, "unit": "%"}, {"measurement": "Increase of AUCτ", "setting": "[2]; atorvastatin co-administered with vonoprazan compared to atorvastatin alone", "value": 28, "unit": "%"}, {"measurement": "within-subject CV of AUCτ", "setting": "[2]; this study, multiple doses for 7 days (data not shown)", "value": 11, "unit": "%"}]}
